Data reported in doi:10.1101/2021.02.18.431817.
No constants are given. Whether binding was seen depends on the method and setting. Binding seen in cells or lysates may run through a third protein. Binding can be weak; no strength is given. Sequences can lack the tags named with a protein.

Legend:
OsSAP8:YFP (rice) = target: T1, OsSAP8:YFP (rice) (UniProt A3BDI8); assay: FRET or BRET
T1 sequence: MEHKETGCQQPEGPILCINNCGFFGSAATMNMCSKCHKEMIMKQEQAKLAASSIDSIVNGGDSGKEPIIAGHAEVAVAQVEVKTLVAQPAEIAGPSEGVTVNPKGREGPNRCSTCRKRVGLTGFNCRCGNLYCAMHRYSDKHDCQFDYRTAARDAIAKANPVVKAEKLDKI

OsSAP9:YFP (rice) = target: T2, OsSAP9:YFP (rice) (UniProt Q7Y1W9); assay: FRET or BRET
T2 sequence: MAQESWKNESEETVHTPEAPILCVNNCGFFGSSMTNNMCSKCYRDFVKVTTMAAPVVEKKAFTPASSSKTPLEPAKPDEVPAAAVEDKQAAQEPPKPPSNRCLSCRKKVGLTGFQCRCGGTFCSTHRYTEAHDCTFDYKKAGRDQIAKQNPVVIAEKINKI

binding (OsSAP8:YFP (rice)) | binding (OsSAP9:YFP (rice)) | Substance
binds | binds | OsCML49a:CFP (rice)
binds | binds | OsCML49b:CFP (rice)
